For part of these data: For at least one entry, the source does not settle the construct or the ends of the probe. For part of these data: Negatives hold for the conditions tested.
Experiments:
[1] = tested on: SREBP (HeLa, affinity purified, 59-68 kDa cluster of SREBP-1 and SREBP-2) (Homo sapiens); experiment: EMSA; details: purified native protein, protein details: HeLa S3 nuclei, SRE-1 DNA affinity purified, label: 32P
[2] = tested on: SREBP (partially purified, rat liver nuclei) (Rattus norvegicus); experiment: EMSA; details: purified native protein, label: 32P
[3] = tested on: SREBP (HeLa, affinity purified, 59-68 kDa cluster of SREBP-1 and SREBP-2) (Homo sapiens); experiment: footprint; details: DNase I, purified native protein, protein details: HeLa S3 nuclei, SRE-1 DNA affinity purified, label: 32P
[4] = tested on: SREBP (HeLa, affinity purified, 59-68 kDa cluster of SREBP-1 and SREBP-2) (Homo sapiens); experiment: binding assay; details: purified native protein, protein details: HeLa S3 nuclei, SRE-1 DNA affinity purified
[5] = molecular target: SREBP-1a (Homo sapiens) (UniProt P36956); experiment: activity in cells; details: CAT reporter stimulated, 293 cells; protein in cells; protein details: pCMV7 expression in 293 cells; only the site is given
[6] = also described as markedly reduced

Chains of the proteins cited; added tags and fusions are not shown. A change or cut given only in a name is not applied to a line headed by its entry. Chains listed by the source or under a name are the forms on record and can include a tag or linker.
UniProt P36956: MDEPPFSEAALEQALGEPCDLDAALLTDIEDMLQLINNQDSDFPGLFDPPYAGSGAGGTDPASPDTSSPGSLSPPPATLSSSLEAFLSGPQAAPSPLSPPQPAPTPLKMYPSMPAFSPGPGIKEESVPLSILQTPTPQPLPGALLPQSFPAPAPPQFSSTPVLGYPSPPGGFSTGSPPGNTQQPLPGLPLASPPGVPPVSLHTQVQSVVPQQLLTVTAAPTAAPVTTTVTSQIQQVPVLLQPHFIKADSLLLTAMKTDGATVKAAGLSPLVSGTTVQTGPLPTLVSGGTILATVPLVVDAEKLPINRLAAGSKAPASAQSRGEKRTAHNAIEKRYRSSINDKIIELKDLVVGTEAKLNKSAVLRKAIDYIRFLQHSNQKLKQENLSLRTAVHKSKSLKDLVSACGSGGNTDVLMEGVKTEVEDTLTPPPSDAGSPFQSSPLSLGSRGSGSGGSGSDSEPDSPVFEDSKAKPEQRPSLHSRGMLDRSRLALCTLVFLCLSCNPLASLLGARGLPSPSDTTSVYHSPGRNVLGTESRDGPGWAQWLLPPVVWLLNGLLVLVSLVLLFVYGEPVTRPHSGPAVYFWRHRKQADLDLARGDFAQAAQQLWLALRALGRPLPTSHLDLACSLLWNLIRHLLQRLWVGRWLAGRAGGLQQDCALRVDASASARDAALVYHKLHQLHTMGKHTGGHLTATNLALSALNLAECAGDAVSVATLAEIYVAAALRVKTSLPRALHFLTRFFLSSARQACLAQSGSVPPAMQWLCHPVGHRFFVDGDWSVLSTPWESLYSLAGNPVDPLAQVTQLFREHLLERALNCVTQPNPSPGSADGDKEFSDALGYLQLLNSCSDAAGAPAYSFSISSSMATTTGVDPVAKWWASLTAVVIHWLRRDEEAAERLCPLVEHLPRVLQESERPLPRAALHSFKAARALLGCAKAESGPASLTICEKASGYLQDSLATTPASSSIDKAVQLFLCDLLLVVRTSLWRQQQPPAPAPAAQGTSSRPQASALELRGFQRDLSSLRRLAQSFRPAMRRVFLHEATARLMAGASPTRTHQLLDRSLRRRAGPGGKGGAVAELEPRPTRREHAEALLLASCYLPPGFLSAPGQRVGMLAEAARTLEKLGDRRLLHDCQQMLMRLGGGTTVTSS
SREBP (HeLa, affinity purified, 59-68 kDa cluster of SREBP-1 and SREBP-2) (Homo sapiens), one chain, as listed by the source, chain 2 of 2: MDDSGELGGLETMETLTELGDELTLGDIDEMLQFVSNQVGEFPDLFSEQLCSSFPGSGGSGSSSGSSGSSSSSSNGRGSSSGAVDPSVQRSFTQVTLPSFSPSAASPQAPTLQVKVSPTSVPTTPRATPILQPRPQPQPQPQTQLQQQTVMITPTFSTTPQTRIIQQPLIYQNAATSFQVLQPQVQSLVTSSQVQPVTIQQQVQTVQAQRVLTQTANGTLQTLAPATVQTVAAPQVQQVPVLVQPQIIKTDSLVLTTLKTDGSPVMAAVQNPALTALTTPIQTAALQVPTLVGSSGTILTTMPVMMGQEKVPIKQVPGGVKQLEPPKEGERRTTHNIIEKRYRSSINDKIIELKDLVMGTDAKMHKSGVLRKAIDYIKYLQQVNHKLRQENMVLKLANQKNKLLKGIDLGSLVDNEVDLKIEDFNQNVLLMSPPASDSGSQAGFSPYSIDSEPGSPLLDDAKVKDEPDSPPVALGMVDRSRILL
SREBP (HeLa, affinity purified, 59-68 kDa cluster of SREBP-1 and SREBP-2) (Homo sapiens), one chain, as listed by the source, chain 1 of 2: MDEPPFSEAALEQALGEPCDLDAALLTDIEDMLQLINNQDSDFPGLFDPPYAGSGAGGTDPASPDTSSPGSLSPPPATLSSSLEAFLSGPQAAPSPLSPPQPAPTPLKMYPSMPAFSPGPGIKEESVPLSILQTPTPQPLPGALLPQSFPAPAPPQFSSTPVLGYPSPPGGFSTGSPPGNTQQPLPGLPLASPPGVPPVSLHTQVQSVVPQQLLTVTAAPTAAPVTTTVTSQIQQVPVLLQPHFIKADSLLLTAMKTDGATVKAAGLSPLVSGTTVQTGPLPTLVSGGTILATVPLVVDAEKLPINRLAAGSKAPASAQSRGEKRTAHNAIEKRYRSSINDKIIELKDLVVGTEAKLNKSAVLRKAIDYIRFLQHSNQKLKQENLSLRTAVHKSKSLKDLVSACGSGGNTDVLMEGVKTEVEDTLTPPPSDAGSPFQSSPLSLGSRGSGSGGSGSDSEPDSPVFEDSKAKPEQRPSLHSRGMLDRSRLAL

Sequence | binding result [1] | binding result [2, 6] | binding result [2] | also measured
AAAAGCACCCCACTGCAA (double strand) [Repeat 2 mutant P] | no binding | no binding |  | 
AAAATAACCCCACTGCAA (double strand) [Repeat 2 mutant Q] | no binding | no binding |  | 
AAAATCAACCCACTGCAA (double strand) [Repeat 2 mutant S] | no binding | no binding |  | 
AAAATCACCCAACTGCAA (double strand) [Repeat 2 mutant V] | no binding | no binding |  | 
AAAATCACCCCAATGCAA (double strand) [Repeat 2 mutant X (Probe *)] | no binding | no binding |  | binding result ([3]; SREBP footprint abolished): no binding
AAAATCACCCCACGGCAA (double strand) [Repeat 2 mutant Y] | binds |  | binds | 
AAAATCACCCCACTGAAA (double strand) [Repeat 2 mutant AA] | binds |  | binds | 
AAAATCACCCCACTGCAA (double strand) [Repeat 2 wild-type human (Probe H, Plasmid K)] |  |  |  | binding result ([1]; 2 tandem Repeat 2+3 copies, stimulated by milk proteins): binds; binding result ([2]; 2 tandem Repeat 2+3 copies, room temperature, 6 mM MgCl2): binds; binding result ([3]; SRE-1 in Repeat 2 protected): binds; binding result ([4]; UV crosslinking with BrdU probe, label: 32P): binds; activity on this sequence [5]: active
AAAATCACCCCACTGCAAACTCCTCCCCCTGC (double strand) [Repeat 2+3 single copy] |  |  |  | binding result ([1]; only one shifted band): binds
AAAATCACCCCACTGCAT (double strand) [Repeat 2 mutant AC] |  |  | binds | 
AAAATCACCCCACTGCTA (double strand) [Repeat 2 mutant AB] |  |  | binds | 
AAAATCACCCCACTTCAA (double strand) [Repeat 2 mutant Z] | binds |  | binds | 
AAAATCACCCCATTGCAA (double strand) [Repeat 2 mouse wild-type (Probe M, Plasmid AE)] | binds |  |  | 
AAAATCACCCCTCTGCAA (double strand) [Repeat 2 mutant W] | no binding | no binding |  | 
AAAATCACCGCACTGCAA (double strand) [Repeat 2 mutant U] | no binding | no binding |  | 
AAAATCACGCCACTGCAA (double strand) [Repeat 2 mutant T] |  |  |  | binding result ([1]; position 6 C to G): binds; binding result ([2]; position 6 mutant): binds
AAAATCTCCCCACTGCAA (double strand) [Repeat 2 mutant R] | no binding | no binding |  | 
AAATTCACCCCACTGCAA (double strand) [Repeat 2 mutant O] | no binding | no binding |  | 
AATATCACCCCACTGCAA (double strand) [Repeat 2 mutant N] | binds |  | binds | 
ATAATCACCCCACTGCAA (double strand) [Repeat 2 mutant M] | binds |  | binds | 
GATCATCACCCCACTG / GATCCAGTGGGGTGAT [Column C oligo, SRE-1 only] |  |  |  | binding result ([4]; DNA affinity column, eluted peak 0.6 M NaCl): binds
TAAATCACCCCACTGCAA (double strand) [Repeat 2 mutant L] | binds |  | binds | 
TCGACAAAAGATAAGATATGCAAACTCCTCCCCCTGCG / TCGACGCAGGGGGAGGAGTTTGCATATCTTATCTTTTG [Column A oligo, scrambled SRE-1 Repeat 2 + Repeat 3] |  |  |  | binding result ([4]; DNA affinity column flow-through, variant of Repeat 2+3 single copy): no binding
TCGACAAAATCACCCCACTGTAAAATCACCCCACTGTG / TCGACACAGTGGGGTGATTTTACAGTGGGGTGATTTTG [Column B oligo, two tandem Repeat 2] |  |  |  | binding result ([4]; DNA affinity column, retained at 0.3 M, eluted 1 M KCl): binds

From patent US5527690
